No constants are given. Whether binding was seen depends on the method and setting. In cells and extracts the contact can be indirect. Some results given as binding are weak or reduced against the parent protein; the word gives no strength.
Target: T1, tetraspanin CD151 (human (endogenous in HCCLM3)) (UniProt P48509)
T1 sequence: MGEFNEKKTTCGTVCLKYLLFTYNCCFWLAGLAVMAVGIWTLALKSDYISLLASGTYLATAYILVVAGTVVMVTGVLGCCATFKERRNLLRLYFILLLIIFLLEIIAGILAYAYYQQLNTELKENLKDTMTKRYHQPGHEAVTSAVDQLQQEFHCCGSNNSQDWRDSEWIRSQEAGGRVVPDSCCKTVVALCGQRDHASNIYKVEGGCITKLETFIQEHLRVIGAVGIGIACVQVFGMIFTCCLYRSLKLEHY
Experiment: co-IP; endogenous proteins in HCCLM3 cells; rabbit anti-human Mortalin and mouse anti-human CD151 monoclonal antibodies; IgG as control

Sequences of proteins named here, by UniProt entry; tags and fusion partners are left off. Residues count along the entry.
UniProt P38646, residues 47-679: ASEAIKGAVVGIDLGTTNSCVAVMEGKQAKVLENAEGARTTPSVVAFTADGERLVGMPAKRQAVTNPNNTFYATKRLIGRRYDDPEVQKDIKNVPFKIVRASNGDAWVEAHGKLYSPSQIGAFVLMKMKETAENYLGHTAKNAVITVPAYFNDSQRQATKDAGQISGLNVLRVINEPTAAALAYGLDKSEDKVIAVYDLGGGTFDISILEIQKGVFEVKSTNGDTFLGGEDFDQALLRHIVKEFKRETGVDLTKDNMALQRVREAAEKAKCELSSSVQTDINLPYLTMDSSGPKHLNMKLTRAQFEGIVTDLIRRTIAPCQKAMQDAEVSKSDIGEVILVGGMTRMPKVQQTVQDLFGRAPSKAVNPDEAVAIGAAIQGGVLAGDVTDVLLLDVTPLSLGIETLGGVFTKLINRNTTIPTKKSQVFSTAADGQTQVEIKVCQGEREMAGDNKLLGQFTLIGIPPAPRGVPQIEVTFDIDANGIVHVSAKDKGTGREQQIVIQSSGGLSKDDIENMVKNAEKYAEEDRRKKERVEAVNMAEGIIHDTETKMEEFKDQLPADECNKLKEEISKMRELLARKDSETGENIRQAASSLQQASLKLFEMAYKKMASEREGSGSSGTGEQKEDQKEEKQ

With Mortalin (from UniProt P38646 47-679) the binding was “binds”.

From article PMC6856732
